Laboratory results reported in patent US20130190217A1, “ESTER OILS” (PANOLIN Holding AG, priority 2010, published 2013).
Read-outs that look alike come from different tables or passages of the source. Some entries repeat one wording, which the source may state once for all of them.

Tests used:
[1] = Vibration-frictional wear test (SRV, model III; ASTM D7421-08, fretting load); conditions: for adhesive failure: at 2000 N or after 40 minutes, +80° C.
[2] = Biodegradability according to OECD 301 B/F; conditions: Table 2, biodegradability
[3] = Table 4, taken from safety data sheets, for guidance; cited from earlier work

With `CC(C)CCCCCCCCCCOC(=O)CCCCCCCCC(=O)OCCCCCCCCCCC(C)C` [C10D13, di(isotridecyl)decanedioate] the adhesive failure [1] was “still no occurrence of adhesive failure”.

For `CC(C)CCCCCCCCCCOC(=O)CCCCCCCCCCC(=O)OCCCCCCCCCCC(C)C` [C12D13, di(isotridecyl)dodecanedioate], the fretting load ([1]; after a time of about 42 min, FIG. 1) was > 1700 N, the adhesive failure [1] was “still no occurrence of adhesive failure” and the “OECD 301 B/F” value [2] was 76%.

For `CC(C)CCCCCCCCCCCCCCC(=O)OCC(C)(C)COC(=O)CCCCCCCCCCCCCCC(C)C` [D5C18, neopentyl glycol di(isostearate)], the “OECD 301 B/F” value [3] is given as 85%.

With `CC(C)CCCCCCCOC(=O)CCCCCCCCCCC(=O)OCCCCCCCC(C)C` [Di(isodecyl) dodecanedioate] the “OECD 301 B/F” value [2] was 93%.

In the case of `CC(C)CCCCCCCCCCOC(=O)CCCCC(=O)OCCCCCCCCCCC(C)C` [DITA, diisotridecyl adipate, reference compound], the “OECD 301 B/F” value [3] is given as 87% and the “OECD 301 B/F” value [2] is given as 92%.

For “trimethylolpropane ester [TMP-C8/10, reference compound]”, the “OECD 301 B/F” value [3] is listed as 64-88%.

For `CC(C)CCCCCCCCCCOC(=O)CCCCCCCC(=O)OCCCCCCCCCCC(C)C` [C9D13, di(isotridecyl)nonanedioate], the adhesive failure [1] was “still no occurrence of adhesive failure”.

With `CC(C)CCCCCCCOC(=O)CCCCC(=O)OCCCCCCCC(C)C` [Diisodecyl adipate] the “OECD 301 B/F” value [2] was 82%.
